This is an account of results in article PMC5807518.

Chains of the proteins cited; added tags and fusions are not shown.
UniProt Q8C6L5: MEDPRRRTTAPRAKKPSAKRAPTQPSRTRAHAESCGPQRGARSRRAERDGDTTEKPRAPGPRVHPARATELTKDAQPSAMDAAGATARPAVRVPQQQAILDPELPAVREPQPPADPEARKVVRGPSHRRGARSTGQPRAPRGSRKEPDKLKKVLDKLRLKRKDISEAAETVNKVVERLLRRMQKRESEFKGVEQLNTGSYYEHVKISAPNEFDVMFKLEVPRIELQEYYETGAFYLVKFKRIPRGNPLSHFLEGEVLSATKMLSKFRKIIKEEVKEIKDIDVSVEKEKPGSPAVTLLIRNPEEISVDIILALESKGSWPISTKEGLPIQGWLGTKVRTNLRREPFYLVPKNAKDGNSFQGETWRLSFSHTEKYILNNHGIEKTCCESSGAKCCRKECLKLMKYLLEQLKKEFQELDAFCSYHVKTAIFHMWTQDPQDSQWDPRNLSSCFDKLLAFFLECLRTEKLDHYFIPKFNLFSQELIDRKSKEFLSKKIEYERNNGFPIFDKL

No constants are given. Whether binding was seen depends on the method and setting. For some assays here: In cells and extracts the contact can be indirect. For some assays here: A result given as binding can be weak or reduced; the word gives no strength.

The target in assay [1] is cGAS-FLAG (cyclic GMP-AMP synthase, FLAG-tagged) (not stated (human or mouse cDNA cloned)) (UniProt Q8C6L5). The experiment in a line: co-IP; WCLs of HEK293T transfected with TRIM56-V5 and cGAS truncation mutants, or cGAS-FLAG and TRIM56 truncation mutants; immunoprecipitation and immunoblotting with the indicated antibodies. On the technique in general: Immunoblotting shows a protein as a band on a membrane.

The target in assay [2] is MBP-cGAS C-terminal region (a.a. 161–522) (mouse). The experiment in a line: pull-down; both purified.

Regarding “TRIM56 C-terminus domain (308–531) (from UniProt Q80VI1) (domain or fragment)”, the binding entry in assay [1] was “binds”.

B1: TRIM56 purified from HEK293T cells (protein, UniProt Q80VI1 1-734)
chain: MNSKVSSPTLLEALSSDFLACKICLEQLHTPKTLPCLHTYCQDCLAQLDIGGQVRCPECREIVPVPAEGVAAFKTNFFVNGLLDLVKARAPGDVHSGKPTCALCPLVGGKSSGGPATARCLDCADDLCQACADGHRCSRQTHKHRVVDLVGYRAGWYDEEARERQASQCPQHPGEALCFLCQPCSQLLCKDCRLGPHIDHPCLPLAEAVRSRKPGLEELLAGVDSNLVELEATRVAEKEALALLREQAASVGTQVEEAAERILKSLLAQKQEVLGQLRALVEAAEEATRERLTKIERQEQVAKAAAAFARRVLSLGLEAEILSLEGAITQRLRQLQDAPWTSGPTRCVLPQLELHPGLEDKNCHLLRLIFEEPKQSPKDSGKGGAGTQGGDEAQGQGDDRTKIGKQGGAQPLTPKEGKDQNPQEDDGVFIERGNRPNKKKKCKGRGKSVSREPSPILRPNLEGSGLLPRPVFSWSFPTRMPGDKRSPRITGLCPYGPQEILVADEQNRVLKRFSLNGDYKGTVQVPEGCSPCSVAALQNAVAFSANAKLYLVSPDGEIQWRRSLSLTQSSHAVAAMPCGDRVAVSVAGHVEVYKKDGSLATRFIPGGKASRGQRALVFLTTSPQGNFVGSDWQQNSVVFCDGLGQVIWEYKGPGLHGCQPGSVSVDKKGYIFLTLREVNKVVILDPKGSLLGDFLTAYHGLEKPRVTTMVDGKYLVVSLSNGTIHVFRVRFPDS
Consider B1, for which, in assay [2], the binding result is recorded as “no binding”.
